US20110105436A1, “HETEROARYL COMPOUNDS, COMPOSITIONS, AND METHODS OF USE IN CANCER TREATMENT” (AUCKLAND UNISERVICES LIMITED, priority 2008, published 2011)
For part of these data: The name of at least one read-out is uncertain. For part of these data: At least one structure is not confirmed: it was looked up by name or label, or the drawing left a doubt.

Assays:
RCC4 cells = assay: XTT assay in VHL-deficient RCC4 cells; assay type: cell-based; conditions: structure-activity text on Tables 1 and 2
Procedure: Cell Viability and XTT assays. For cell viability, 100,000 cells were plated in a 12-well plate. The following day, 1.25 μM STF-62247 was added in the presence or absence of 1 mM 3-MA for 24 hours at 37° C. Cells were trypsinized and counted by trypan blue exclusion. For XTT assays, 5000 RCC4 with and without VHL cells or 2,500 SN12C with and without VHL shRNA cells were plated in 96-well plates. The following day, vehicle (DMSO), STF-62247 or each of 19 analogs were added to media by serial dilution. Four days later, the media was aspirated and XTT solution containing 0.3 mg/ml of XTT (Sigma Chemical Co) in Phenol Red-free media, 20% FCS and 2.65 mg/ml N-methyl dibenzopyrazine methyl sulfate (PMS) was added to the cells and incubated at 37° C. for 1-2 hours. Metabolism of XTT was quantified by measuring the absorbance at 450 nm on a plate reader.

LC3 = LC3 processing by Western blot and immunostaining; assay type: cell-based; conditions: co-treatment with 1.25 μM STF-62247, 20 hrs, VHL-deficient RCC cells
Procedure: Western blot analysis. After treatments, cells were lysed in urea buffer (9M urea, 75 mM Tris (pH 7.5), 150 mM b-mercaptoethanol), placed on ice for 10 minutes and sonicated briefly (15 seconds). Extracts were centrifugated at 8,000×g for 10 minutes to eliminate insoluble material. Lysates were quantitated using Bio-Rad protein Assay (Bio-Rad Laboratories) and 20-30 μg of proteins were separated on a 7.5% or 15% bis-acrylamide gels and then transferred onto PVDF membranes. Proteins were visualized using HIF-2α (Novus Biological), HIF-1α, pVHL and BiP (BD Biosciences), LC3 (MBL), Atg5, or α-tubulin antibodies.
Immunofluorescence staining. […] Cells were washed three times in PBS-BSA and the bound primary antibody was detected using a fluorescein-conjugated secondary antibody (ALEXA) diluted 1:500 in PBS-BSA and incubated for 1 hour. […]
A. Phase contrast pictures of VHL-deficient RCC4 and SN12C-VHL shRNA cells and VHL-positive cells RCC4 and SN12C after 20 hrs of 1.25 μM STF-62247. […] Viability is measured by trypan blue exclusion assay and is represented by the average of three different experiments in duplicate as the percent of treated on untreated cells. […]
B,C. LC3 processing was evaluated by Western blot after the treatment with U0126 or tunicamycin in presence or absence of STF-62247 as described above. […]

Cc1cccc(Nc2nc(-c3ccncc3)cs2)c1 [Compound 5, N-(3-Methylphenyl)-4-(4-pyridinyl)-1,3-thiazol-2-amine]
IC50 as described in text (RCC4 cells): low IC50 in VHL-deficient RCC4 cells

Cc1ccc(Nc2nc(-c3ccncc3)cs2)cc1 [Compound 21, N-(4-Methylphenyl)-4-(4-pyridinyl)-1,3-thiazol-2-amine]
IC50 as described in text (RCC4 cells): higher IC50 for both RCC4 and RCC4/VHL cells

O=c1cc(N2CCOCC2)oc2c(-c3ccccc3)cccc12 [LY294002, reference compound]
effect of inhibitor on vacuole formation and LC3-II induced by STF-62247 (LC3): significantly decreased large vacuole formation and the LC3-lipidation form
